Measured values as given in patent publication US20250221943A1 (CAMBRIDGE ENTERPRISE LIMITED, priority 2022, published 2025).

Assay: general procedure: peptide synthesis; HATU/DIPEA
Conditions: conjugation step

H-QGAIGLPGC-OH gave a conjugation yield of 61%.
